Source: article PMC11264885
Results are given in words; binding and its absence hold for the method and conditions named. In cells and extracts the contact can be indirect. Some results given as binding are weak or reduced against the parent protein; the word gives no strength. Sequences can lack the tags named with a protein.

Target: T1, Myc-tagged transforming growth factor β-activated kinase 1 (TAK1) (UniProt O43318)
T1 sequence: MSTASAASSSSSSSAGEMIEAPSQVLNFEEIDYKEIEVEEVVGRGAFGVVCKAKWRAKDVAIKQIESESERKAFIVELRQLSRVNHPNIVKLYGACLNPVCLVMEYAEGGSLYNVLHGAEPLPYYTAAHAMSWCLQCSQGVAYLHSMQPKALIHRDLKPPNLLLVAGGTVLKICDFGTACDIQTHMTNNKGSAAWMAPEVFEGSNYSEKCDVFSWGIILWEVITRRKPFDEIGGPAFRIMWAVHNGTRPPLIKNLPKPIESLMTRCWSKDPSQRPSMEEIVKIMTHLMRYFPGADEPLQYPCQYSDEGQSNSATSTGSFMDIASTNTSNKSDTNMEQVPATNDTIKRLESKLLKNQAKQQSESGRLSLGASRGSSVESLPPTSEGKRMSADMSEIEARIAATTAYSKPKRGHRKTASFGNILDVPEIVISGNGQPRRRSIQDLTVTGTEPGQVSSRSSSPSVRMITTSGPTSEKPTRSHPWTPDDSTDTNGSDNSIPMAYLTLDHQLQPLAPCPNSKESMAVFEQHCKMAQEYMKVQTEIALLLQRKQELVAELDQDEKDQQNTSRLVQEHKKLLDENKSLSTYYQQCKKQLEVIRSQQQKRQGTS
Assay: co-IP; 293T cells co-transfected with Flag-tagged USP13 and Myc-tagged TAK1; lysates in IP lysis buffer incubated overnight at 4 °C with anti-Myc agarose or anti-FLAG M2 affinity gel; Western blotting

- binding: binds
B1: Flag-tagged ubiquitin specific protease 13 (USP13) (enzyme, UniProt Q92995 1-863)
chain: MQRRGALFGMPGGSGGRKMAAGDIGELLVPHMPTIRVPRSGDRVYKNECAFSYDSPNSEGGLYVCMNTFLAFGREHVERHFRKTGQSVYMHLKRHVREKVRGASGGALPKRRNSKIFLDLDTDDDLNSDDYEYEDEAKLVIFPDHYEIALPNIEELPALVTIACDAVLSSKSPYRKQDPDTWENELPVSKYANNLTQLDNGVRIPPSGWKCARCDLRENLWLNLTDGSVLCGKWFFDSSGGNGHALEHYRDMGYPLAVKLGTITPDGADVYSFQEEEPVLDPHLAKHLAHFGIDMLHMHGTENGLQDNDIKLRVSEWEVIQESGTKLKPMYGPGYTGLKNLGNSCYLSSVMQAIFSIPEFQRAYVGNLPRIFDYSPLDPTQDFNTQMTKLGHGLLSGQYSKPPVKSELIEQVMKEEHKPQQNGISPRMFKAFVSKSHPEFSSNRQQDAQEFFLHLVNLVERNRIGSENPSDVFRFLVEERIQCCQTRKVRYTERVDYLMQLPVAMEAATNKDELIAYELTRREAEANRRPLPELVRAKIPFSACLQAFSEPENVDDFWSSALQAKSAGVKTSRFASFPEYLVVQIKKFTFGLDWVPKKFDVSIDMPDLLDINHLRARGLQPGEEELPDISPPIVIPDDSKDRLMNQLIDPSDIDESSVMQLAEMGFPLEACRKAVYFTGNMGAEVAFNWIIVHMEEPDFAEPLTMPGYGGAASAGASVFGASGLDNQPPEEIVAIITSMGFQRNQAIQALRATNNNLERALDWIFSHPEFEEDSDFVIEMENNANANIISEAKPEGPRVKDGSGTYELFAFISHMGTSTMSGHYICHIKKEGRWVIYNDHKVCASERPPKDLGYMYFYRRIPS
